Measurements published in the supplement of paper PMC10331698.
± gives the standard deviation of the averaged measurements. Most values lie at the level of the controls, where differences are scatter.

Legend:
Experiment in all cases: level (log10 ratio to DMSO vehicle control); higher = higher biomarker level / cell amount than vehicle control
[1] = compound: C=C(C)C(=O)OCC(F)(F)C(F)(F)C(F)(F)C(F)(F)C(F)(F)C(F)(F)C(F)(F)F; details: in DMSO
Description: (§1)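 BioMAP Diversity Plus panel of 12 human primary cell co-culture systems (3C, 4H, LPS, SAg, BT, BF4T, BE3C, CASM3C, HDF3CGF, KF3CT, MyoF, Mphg). Compounds were added 1 h before stimulation and left for 24 h (MyoF 48 h; BT 72 h for soluble read-outs or 6 d for IgG). Biomarkers were read by ELISA, cytotoxicity by SRB, PBMC viability and proliferation by Alamar Blue. Each well value was divided by the mean of 8 DMSO control wells on the same plate and log10 transformed; duplicate blinded samples were tested at 4 concentrations.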

[2] = compound: C=CC(=O)OCC(F)(F)C(F)(F)C(F)(F)C(F)(F)C(F)(F)C(F)(F)C(F)(F)F [1H,1H-Perfluorooctyl acrylate]; details: 2200 nM; in DMSO
Description: as §1

[3] = compound: C=CC(F)(F)C(F)(F)C(F)(F)C(F)(F)C(F)(F)C(F)(F)C(F)(F)C(F)(F)C=C [1,8-Divinylperfluorooctane]; details: in DMSO
Description: as §1

[4] = compound: COC(=O)C(F)(F)C(F)(F)OC(F)(C(F)(F)F)C(F)(F)OC(F)=C(F)F [Methyl perfluoro(3-(1-ethenyloxypropan-2-yloxy)propanoate)]; details: in DMSO
Description: as §1

[5] = compound: CO[Si](C)(CCC(F)(F)C(F)(F)C(F)(F)C(F)(F)C(F)(F)C(F)(F)F)OC [Dimethoxymethyl((perfluorohexyl)ethyl)silane]; details: in DMSO
Description: as §1

[6] = compound: FC(F)(F)C(F)(F)C(F)(F)CC1CO1 [1H,1H-Heptafluorobutyl epoxide]; details: 2200 nM; in DMSO
Description: as §1

Heptafluorobutyl iodide = compound: FC(F)(F)C(F)(F)C(F)(F)CI [Heptafluorobutyl iodide]; details: 2200 nM; in DMSO
Description: as §1

[7] = compound: NC(=O)C(F)(F)C(F)(F)C(F)(F)C(F)F; details: in DMSO
Description: as §1

Pentafluoropropionamide = compound: NC(=O)C(F)(F)C(F)(F)F [Pentafluoropropionamide]; details: 2200 nM; in DMSO
Description: as §1

[8] = compound: NS(=O)(=O)C(F)(F)C(F)(F)C(F)(F)C(F)(F)C(F)(F)C(F)(F)C(F)(F)C(F)(F)F [Perfluorooctanesulfonamide]; details: in DMSO
Description: as §1

[9] = compound: O=C(O)C(F)(F)C(F)(F)C(F)F [4H-Perfluorobutanoic acid]; details: in DMSO
Description: as §1

[10] = compound: O=P(O)(O)CCC(F)(F)C(F)(F)C(F)(F)C(F)(F)C(F)(F)C(F)(F)F [2-(Perfluorohexyl)ethylphosphonic acid]; details: 2200 nM; in DMSO
Description: as §1

[11] = compound: O=S(=O)(F)C(F)(F)C(F)(F)C(F)(F)C(F)(F)C(F)(F)C(F)(F)C(F)(F)C(F)(F)F [Perfluorooctanesulfonyl fluoride]; details: 2200 nM; in DMSO
Description: as §1

[12] = compound: O=S(=O)(O)C(F)(F)C(F)(F)C(F)(F)C(F)(F)C(F)(F)C(F)(F)C(F)(F)C(F)(F)F [Perfluorooctanesulfonic acid]; details: 2200 nM; in DMSO
Description: as §1

[13] = compound: O=S(=O)(O)C(F)(F)C(F)(F)C(F)(F)C(F)(F)C(F)(F)C(F)(F)C(F)(F)C(F)(F)F [Potassium perfluorooctanesulfonate]; details: 2200 nM; in DMSO
Description: as §1

[14] = compound: O=S(=O)(OCC(F)(F)F)C(F)(F)C(F)(F)C(F)(F)C(F)(F)F [2,2,2-Trifluoroethyl perfluorobutanesulfonate]; details: 2200 nM; in DMSO
Description: as §1

[15] = compound: OCC(F)(F)C(F)(F)C(F)(F)C(F)(F)C(F)(F)C(F)F [1H,1H,7H-Dodecafluoro-1-heptanol]; details: 2200 nM; in DMSO
Description: as §1

[16] = compound: OCCCCC(F)(F)C(F)(F)C(F)(F)C(F)(F)F [4:4 Fluorotelomer alcohol]; details: 2200 nM; in DMSO
Description: as §1

Row | Test System | level (log10) ([1]; 740 nM) | level (log10) ([1]; 2200 nM) | level (log10) [2] | level (log10) ([3]; 740 nM) | level (log10) ([3]; 2200 nM) | level (log10) ([4]; 740 nM) | level (log10) ([4]; 2200 nM) | level (log10) ([5]; 740 nM) | level (log10) ([5]; 2200 nM) | level (log10) [6] | level (log10) (Heptafluorobutyl iodide) | level (log10) ([7]; 2200 nM) | level (log10) ([7]; 6700 nM) | level (log10) ([7]; 20000 nM) | level (log10) ([7]; 60000 nM) | level (log10) (Pentafluoropropionamide) | level (log10) ([8]; 2200 nM) | level (log10) ([8]; 6700 nM) | level (log10) ([8]; 20000 nM) | level (log10) ([9]; 2200 nM) | level (log10) ([9]; 6700 nM) | level (log10) ([9]; 20000 nM) | level (log10) ([9]; 60000 nM) | level (log10) [10] | level (log10) [11] | level (log10) [12] | level (log10) [13] | level (log10) [14] | level (log10) [15] | level (log10) [16]
1 | HDF3CGF:EGFR | -0.037 ± 0.0042 | -0.0025 ± 0.019 | -0.19 ± 0.02 | -0.033 ± 0.0085 | 0.0155 ± 0.0092 | 0.01 ± 0.075 | -0.0305 ± 0.042 | 0.01 ± 0.033 | -0.007 ± 0.0028 | 0.022 ± 0.028 | -0.061 ± 0.051 | 0.006 ± 0.034 | 0.001 ± 0.033 | 0.0025 ± 0.046 | 0.0125 ± 0.043 | -0.031 ± 0.011 | 0.0275 ± 0.03 | -0.016 ± 0.014 | -0.171 ± 0.016 | 0.036 ± 0.076 | -0.0155 ± 0.054 | 0.0005 ± 0.019 | 0.0725 ± 0.12 | -0.005 ± 0.078 | -0.0965 ± 0.2 | -0.0145 ± 0.039 | 0.0165 ± 0.025 | 0.0325 ± 0.033 | 0.018 ± 0.057 | -0.0065 ± 0.028
2 | HDF3CGF:M-CSF | 0.022 ± 0.081 | 0.0065 ± 0.019 | -0.005 ± 0.025 | 0.0075 ± 0.013 | -0.032 ± 0.028 | 0.029 ± 0.0071 | 0.013 ± 0.047 | 0.02 | -0.0215 ± 0.018 | 0.0275 ± 0.069 | -0.0615 ± 0.066 | -0.001 ± 0.017 | -0.0065 ± 0.0078 | -0.008 ± 0.0014 | 0.017 ± 0.031 | 0.004 ± 0.03 | 0.017 ± 0.051 | -0.0605 ± 0.012 | -0.507 ± 0.07 | -0.0045 ± 0.037 | -0.0305 ± 0.035 | -0.013 ± 0.033 | -0.015 ± 0.041 | -0.006 ± 0.025 | -0.0435 ± 0.069 | 0.005 ± 0.0057 | 0.0285 ± 0.0035 | 0.007 ± 0.014 | 0.012 ± 0.018 | -0.006
